From doi:10.1101/2024.12.23.630104 come the findings set out here.

The chains behind the UniProt entries cited, without tags or fusion partners.
UniProt O15037: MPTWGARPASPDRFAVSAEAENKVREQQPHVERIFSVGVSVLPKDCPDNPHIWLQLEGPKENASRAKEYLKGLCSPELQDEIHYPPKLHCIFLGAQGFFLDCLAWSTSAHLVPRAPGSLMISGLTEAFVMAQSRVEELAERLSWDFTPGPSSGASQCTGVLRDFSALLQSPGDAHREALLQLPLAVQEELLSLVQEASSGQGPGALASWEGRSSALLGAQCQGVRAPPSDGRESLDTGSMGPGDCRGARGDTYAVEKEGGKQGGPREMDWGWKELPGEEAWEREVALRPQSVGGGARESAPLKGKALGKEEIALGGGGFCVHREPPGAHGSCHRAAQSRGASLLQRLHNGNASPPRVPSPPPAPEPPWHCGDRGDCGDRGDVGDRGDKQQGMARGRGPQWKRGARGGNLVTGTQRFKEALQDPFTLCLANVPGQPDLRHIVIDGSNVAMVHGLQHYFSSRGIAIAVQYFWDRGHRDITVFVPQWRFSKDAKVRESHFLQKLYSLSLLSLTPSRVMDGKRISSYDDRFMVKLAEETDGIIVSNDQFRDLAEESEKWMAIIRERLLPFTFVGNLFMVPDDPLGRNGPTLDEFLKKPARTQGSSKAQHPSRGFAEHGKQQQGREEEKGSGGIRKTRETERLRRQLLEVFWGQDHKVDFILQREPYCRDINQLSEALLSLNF
UniProt Q7Z2W4: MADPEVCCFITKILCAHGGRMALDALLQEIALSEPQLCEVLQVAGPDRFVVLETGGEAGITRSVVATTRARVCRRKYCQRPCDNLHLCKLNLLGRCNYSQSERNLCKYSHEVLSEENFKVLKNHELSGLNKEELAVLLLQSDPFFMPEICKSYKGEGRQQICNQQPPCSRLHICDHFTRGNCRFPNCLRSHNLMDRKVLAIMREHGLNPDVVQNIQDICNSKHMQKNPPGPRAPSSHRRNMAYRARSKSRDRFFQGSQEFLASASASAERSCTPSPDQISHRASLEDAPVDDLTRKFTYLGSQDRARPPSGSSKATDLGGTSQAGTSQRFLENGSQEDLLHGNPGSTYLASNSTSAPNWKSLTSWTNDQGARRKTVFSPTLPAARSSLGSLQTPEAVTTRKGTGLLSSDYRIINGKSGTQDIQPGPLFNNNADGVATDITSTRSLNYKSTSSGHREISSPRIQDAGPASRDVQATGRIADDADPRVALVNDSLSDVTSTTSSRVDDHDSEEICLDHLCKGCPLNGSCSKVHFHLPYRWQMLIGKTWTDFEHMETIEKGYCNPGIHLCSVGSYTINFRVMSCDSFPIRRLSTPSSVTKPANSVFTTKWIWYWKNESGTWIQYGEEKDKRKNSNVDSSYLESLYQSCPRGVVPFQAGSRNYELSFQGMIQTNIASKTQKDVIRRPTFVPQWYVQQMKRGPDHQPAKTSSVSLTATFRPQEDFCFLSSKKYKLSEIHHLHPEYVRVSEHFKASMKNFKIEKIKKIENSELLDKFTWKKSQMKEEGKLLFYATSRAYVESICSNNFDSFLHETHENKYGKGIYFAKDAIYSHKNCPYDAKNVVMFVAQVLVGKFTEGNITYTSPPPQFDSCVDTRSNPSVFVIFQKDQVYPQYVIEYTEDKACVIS

No constants are given. Whether binding was seen depends on the method and setting. In cells and extracts the contact can be indirect. Some entries that bind do so weakly or less than the wild type.

In this assay the target is wild type KHNYN-GFP (human) (UniProt O15037). Briefly: co-IP.

In the case of “Zinc finger antiviral protein (ZAP) (from UniProt Q7Z2W4 1-902)”, the binding entry is recorded as “binds”.
